Values quoted from earlier work in patent publication US20090304576A1, “DEVICE FOR DELIVERY OF ANTI-CANCER AGENTS TO TISSUE” (priority 2006, published 2009).
For at least one compound, name, drawing or mass did not settle the structure.

Test system: glioblastoma multiforme (GBM)
Details: oral temozolomide together with surgical resection and external beam radiation in GBM

Cn1nnc2c(C(N)=O)ncn2c1=O [temozolomide]
median prolongation of survival: 2-3 months
